Earlier results in patent US8753681B2, “Pharmaceutical composition comprising at least one active agent and a binder, which swells in an acidic media” (LEK Pharmaceuticals D.D., priority 2007, dated 2014).

Details: after oral application

time to reach maximum plasma concentration: less than 2 hours
SMILES: CC(C)c1c(C(=O)Nc2ccccc2)c(-c2ccccc2)c(-c2ccc(F)cc2)n1CC[C@@H](O)C[C@@H](O)CC(=O)O [Atorvastatin]
